# Source: US9476017B2, “Compositions and methods for cleaning, disinfecting, and sanitizing that are effluent neutral” (Diversey, Inc, priority 2012, dated 2016)
# Experiment: Cleaning tests at 70° C. on stainless steel plates soiled with bioferment (Example 3)
# Details: 2%, 45 min contact time
structure (smiles),measurement,setting,value
O=C([O-])[O-].[Na+].[Na+] [Sodium Carbonate],Soil Removal Average,average of two plates,92.29 g
same,Soil Removal,"single plate, listed as Na2CO3",94.0 g and 90.6 g

# “And” between values parts separate entries of the source, which are not always exact repeats. Identical values can stand only once.
